# Results reported in the supplement of paper PMC8728848.
# The list shows a part of the results.
# How the values were obtained:
# Test in all cases: glycan array binding signal (z-score within array); higher = stronger binding
# Conditions in all cases: glycan notation: IUPAC condensed, linker removed
# [1] = molecular target: Neu5Ac(a2-6)Gal(b1-4)GlcNAc(b1-3)Gal(b1-4)GlcNAc(b1-3)GalNAc
# In short: (§1)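 The binding signal is a Z-score computed within each array and averaged over linkers. Arrays of the same protein sequence at different concentrations or buffers were also averaged together. Data originate from 3228 arrays in the Consortium for Functional Glycomics database, kept only where the protein sequence was available.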
# [2] = molecular target: Neu5Ac(a2-6)Gal(b1-4)GlcNAc(b1-3)Gal(b1-4)GlcNAc(b1-3)[Neu5Ac(a2-6)Gal(b1-4)GlcNAc(b1-3)Gal(b1-4)GlcNAc(b1-6)]GalNAc
# In short: as §1
# [3] = molecular target: Neu5Ac(a2-6)Gal(b1-4)GlcNAc(b1-3)Gal(b1-4)GlcNAc(b1-6)[Gal(b1-3)]GalNAc
# In short: as §1
# [4] = molecular target: Neu5Ac(a2-6)Gal(b1-4)GlcNAc(b1-3)Gal(b1-4)[Fuc(a1-3)]GlcNAc(b1-3)Gal(b1-4)[Fuc(a1-3)]GlcNAc
# In short: as §1
# [5] = molecular target: Neu5Ac(a2-6)Gal(b1-4)GlcNAc(b1-3)GalNAc
# In short: as §1
# [6] = molecular target: Neu5Ac(a2-6)Gal(b1-4)GlcNAc(b1-3)[Neu5Ac(a2-6)Gal(b1-4)GlcNAc(b1-6)]GalNAc
# In short: as §1
# [7] = molecular target: Neu5Ac(a2-6)Gal(b1-4)GlcNAc(b1-6)GalNAc
# In short: as §1
# [8] = molecular target: Neu5Ac(a2-6)Gal(b1-4)GlcNAc(b1-6)[Gal(b1-3)GlcNAc(b1-3)]Gal(b1-4)Glc
# In short: as §1
# [9] = molecular target: Neu5Ac(a2-6)Gal(b1-4)GlcNAc(b1-6)[Gal(b1-3)]GalNAc
# In short: as §1
# [10] = molecular target: Neu5Ac(a2-6)Gal(b1-4)GlcNAc6S
# In short: as §1
# [11] = molecular target: Neu5Ac(a2-6)GalNAc
# In short: as §1
# [12] = molecular target: Neu5Ac(a2-6)GalNAc(b1-4)GlcNAc
# In short: as §1
# [13] = molecular target: Neu5Ac(a2-6)GalNAc(b1-4)GlcNAc6S
# In short: as §1
# [14] = molecular target: Neu5Ac(a2-6)GlcNAc(b1-4)GlcNAc
# In short: as §1
# [15] = molecular target: Neu5Ac(a2-6)GlcNAc(b1-4)GlcNAc(b1-4)GlcNAc
# In short: as §1
# [16] = molecular target: Neu5Ac(a2-8)Neu5Ac
# In short: as §1
# [17] = molecular target: Neu5Ac(a2-8)Neu5Ac(a2-3)Gal(b1-3)GalNAc(b1-4)[Neu5Ac(a2-3)]Gal(b1-4)Glc
# In short: as §1
# [18] = molecular target: Neu5Ac(a2-8)Neu5Ac(a2-3)Gal(b1-3)GalNAc(b1-4)[Neu5Ac(a2-8)Neu5Ac(a2-3)]Gal(b1-4)Glc
# In short: as §1
# [19] = molecular target: Neu5Ac(a2-8)Neu5Ac(a2-3)Gal(b1-4)Glc
# In short: as §1
# [20] = molecular target: Neu5Ac(a2-8)Neu5Ac(a2-3)Gal(b1-4)GlcNAc
# In short: as §1
# [21] = molecular target: Neu5Ac(a2-8)Neu5Ac(a2-3)[Gal(b1-3)GalNAc(b1-4)]Gal(b1-4)Glc
# In short: as §1
# [22] = molecular target: Neu5Ac(a2-8)Neu5Ac(a2-3)[GalNAc(b1-4)]Gal(b1-4)Glc
# In short: as §1
# [23] = molecular target: Neu5Ac(a2-8)Neu5Ac(a2-8)Neu5Ac
# In short: as §1
# [24] = molecular target: Neu5Ac(a2-8)Neu5Ac(a2-8)Neu5Ac(a2-3)Gal(b1-4)Glc
# In short: as §1
# [25] = molecular target: Neu5Ac(a2-8)Neu5Ac(a2-8)Neu5Ac(a2-3)[Gal(b1-3)GalNAc(b1-4)]Gal(b1-4)Glc
# In short: as §1
# [26] = molecular target: Neu5Ac(a2-8)Neu5Ac(a2-8)Neu5Ac(a2-3)[GalNAc(b1-4)]Gal(b1-4)Glc
# In short: as §1
# [27] = molecular target: Neu5Ac(a2-8)Neu5Ac(a2-8)Neu5Ac(a2-8)Neu5Ac(a2-3)[GalNAc(b1-4)]Gal(b1-4)Glc
# In short: as §1
# [28] = molecular target: Neu5Ac(a2-8)Neu5Gc(a2-3)Gal(b1-4)GlcNAc
# In short: as §1
# [29] = molecular target: Neu5Ac(b2-6)Gal(b1-4)GlcNAc
# In short: as §1
# [30] = molecular target: Neu5Ac(b2-6)GalNAc
# In short: as §1
# [31] = molecular target: Neu5Ac9Ac(a2-3)Gal(b1-3)GlcNAc
# In short: as §1
# [32] = molecular target: Neu5Ac9Ac(a2-3)Gal(b1-4)GlcNAc
# In short: as §1
# [33] = molecular target: Neu5Ac9Ac(a2-6)Gal(b1-4)GlcNAc
# In short: as §1
# [34] = molecular target: Neu5Gc(a2-3)Gal(b1-3)GlcNAc
# In short: as §1
# [35] = molecular target: Neu5Gc(a2-3)Gal(b1-3)[Fuc(a1-4)]GlcNAc
# In short: as §1
# [36] = molecular target: Neu5Gc(a2-3)Gal(b1-4)Glc
# In short: as §1
# [37] = molecular target: Neu5Gc(a2-3)Gal(b1-4)GlcNAc
# In short: as §1
# [38] = molecular target: Neu5Gc(a2-3)Gal(b1-4)GlcNAc(b1-3)Gal(b1-4)GlcNAc(b1-2)Man(a1-3)[Neu5Gc(a2-3)Gal(b1-4)GlcNAc(b1-3)Gal(b1-4)GlcNAc(b1-2)Man(a1-6)]Man(b1-4)GlcNAc(b1-4)GlcNAc
# In short: as §1
# [39] = molecular target: Neu5Gc(a2-3)Gal(b1-4)[Fuc(a1-3)]GlcNAc
# In short: as §1
# [40] = molecular target: Neu5Gc(a2-6)Gal(b1-4)GlcNAc
# In short: as §1
# [41] = molecular target: Neu5Gc(a2-6)GalNAc
# In short: as §1
# [42] = molecular target: Neu5Gc(a2-8)Neu5Ac(a2-3)Gal(b1-4)GlcNAc
# In short: as §1
# [43] = molecular target: Neu5Gc(a2-8)Neu5Gc(a2-3)Gal(b1-4)GlcNAc
# In short: as §1
# [44] = molecular target: Neu5Gc(a2-8)Neu5Gc(a2-3)Gal(b1-4)GlcNAc(b1-3)Gal(b1-4)GlcNAc
# In short: as §1
# [45] = molecular target: Neu5Gc(a2-8)Neu5Gc(a2-6)Gal(b1-4)GlcNAc
# In short: as §1
binder,measurement,setting,value
Lb MiSSP8 (Laccaria bicolor) (protein) MYFHTLFACATLMLITTAHASPTVINSLDSRKADLNGDVEARHAADWRRDSDWRRDSDWRRDSDWRRDSD,glycan array binding signal (z-score),[1],-0.778
same,glycan array binding signal (z-score),[2],1.74
same,glycan array binding signal (z-score),[3],-0.792
same,glycan array binding signal (z-score),[4],-0.633
same,glycan array binding signal (z-score),[5],-0.274
same,glycan array binding signal (z-score),[6],-0.737
same,glycan array binding signal (z-score),[7],-0.33
same,glycan array binding signal (z-score),[8],-0.357
same,glycan array binding signal (z-score),[9],-0.509
same,glycan array binding signal (z-score),[10],-0.806
same,glycan array binding signal (z-score),[11],-0.44
same,glycan array binding signal (z-score),[12],-0.971
same,glycan array binding signal (z-score),[13],-0.557
same,glycan array binding signal (z-score),[14],-0.592
same,glycan array binding signal (z-score),[15],0.423
same,glycan array binding signal (z-score),[16],-0.65
same,glycan array binding signal (z-score),[17],-0.336
same,glycan array binding signal (z-score),[18],1.89
same,glycan array binding signal (z-score),[19],-0.744
same,glycan array binding signal (z-score),[20],-0.861
same,glycan array binding signal (z-score),[21],-0.405
same,glycan array binding signal (z-score),[22],-0.295
same,glycan array binding signal (z-score),[23],-0.768
same,glycan array binding signal (z-score),[24],-0.84
same,glycan array binding signal (z-score),[25],1.08
same,glycan array binding signal (z-score),[26],-0.82
same,glycan array binding signal (z-score),[27],-0.778
same,glycan array binding signal (z-score),[28],-0.965
same,glycan array binding signal (z-score),[29],-0.896
same,glycan array binding signal (z-score),[30],-0.923
same,glycan array binding signal (z-score),[31],-0.55
same,glycan array binding signal (z-score),[32],-0.447
same,glycan array binding signal (z-score),[33],-0.709
same,glycan array binding signal (z-score),[34],-0.571
same,glycan array binding signal (z-score),[35],-0.53
same,glycan array binding signal (z-score),[36],1.35
same,glycan array binding signal (z-score),[37],-0.543
same,glycan array binding signal (z-score),[38],0.285
same,glycan array binding signal (z-score),[39],1.81
same,glycan array binding signal (z-score),[40],0.761
same,glycan array binding signal (z-score),[41],0.085
same,glycan array binding signal (z-score),[42],-0.958
same,glycan array binding signal (z-score),[43],-0.861
same,glycan array binding signal (z-score),[44],-0.965
same,glycan array binding signal (z-score),[45],-0.896

# A run of entries from further up, for reference:
binder,measurement,setting,value
Lb MiSSP8 (Laccaria bicolor) (protein) MYFHTLFACATLMLITTAHASPTVINSLDSRKADLNGDVEARHAADWRRDSDWRRDSDWRRDSDWRRDSD,glycan array binding signal (z-score),[30],-0.923
same,glycan array binding signal (z-score),[31],-0.55
